Our source for the binding values is publication PMC7501302.

The chains behind the UniProt entries cited, without tags or fusion partners.
UniProt O95251: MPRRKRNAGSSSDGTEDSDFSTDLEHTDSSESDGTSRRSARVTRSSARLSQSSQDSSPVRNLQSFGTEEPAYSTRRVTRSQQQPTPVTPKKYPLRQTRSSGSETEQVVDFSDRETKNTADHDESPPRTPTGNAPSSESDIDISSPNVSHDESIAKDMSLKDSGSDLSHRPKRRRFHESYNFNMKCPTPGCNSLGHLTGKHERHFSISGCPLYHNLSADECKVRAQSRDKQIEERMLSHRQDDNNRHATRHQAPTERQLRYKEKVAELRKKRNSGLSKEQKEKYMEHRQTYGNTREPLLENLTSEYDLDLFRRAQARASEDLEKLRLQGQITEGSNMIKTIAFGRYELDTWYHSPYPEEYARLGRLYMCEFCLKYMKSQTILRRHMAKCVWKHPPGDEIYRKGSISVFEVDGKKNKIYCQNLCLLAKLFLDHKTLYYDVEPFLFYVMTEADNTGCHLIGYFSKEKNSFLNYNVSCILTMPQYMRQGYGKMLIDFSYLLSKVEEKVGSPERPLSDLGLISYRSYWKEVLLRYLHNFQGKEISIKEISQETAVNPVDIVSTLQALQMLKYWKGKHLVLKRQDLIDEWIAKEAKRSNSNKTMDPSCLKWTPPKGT

These are yes or no findings as the source states them, for the method shown. In cells and extracts the contact can be indirect. These calls come from enrichment with a bait or labelling near it, and not all partners need be listed. Sequences can lack the tags named with a protein.

This assay deals with T1, FLAG-PKD1 (protein kinase D1), expressed in HEK293T cells (UniProt Q15139).
T1 sequence: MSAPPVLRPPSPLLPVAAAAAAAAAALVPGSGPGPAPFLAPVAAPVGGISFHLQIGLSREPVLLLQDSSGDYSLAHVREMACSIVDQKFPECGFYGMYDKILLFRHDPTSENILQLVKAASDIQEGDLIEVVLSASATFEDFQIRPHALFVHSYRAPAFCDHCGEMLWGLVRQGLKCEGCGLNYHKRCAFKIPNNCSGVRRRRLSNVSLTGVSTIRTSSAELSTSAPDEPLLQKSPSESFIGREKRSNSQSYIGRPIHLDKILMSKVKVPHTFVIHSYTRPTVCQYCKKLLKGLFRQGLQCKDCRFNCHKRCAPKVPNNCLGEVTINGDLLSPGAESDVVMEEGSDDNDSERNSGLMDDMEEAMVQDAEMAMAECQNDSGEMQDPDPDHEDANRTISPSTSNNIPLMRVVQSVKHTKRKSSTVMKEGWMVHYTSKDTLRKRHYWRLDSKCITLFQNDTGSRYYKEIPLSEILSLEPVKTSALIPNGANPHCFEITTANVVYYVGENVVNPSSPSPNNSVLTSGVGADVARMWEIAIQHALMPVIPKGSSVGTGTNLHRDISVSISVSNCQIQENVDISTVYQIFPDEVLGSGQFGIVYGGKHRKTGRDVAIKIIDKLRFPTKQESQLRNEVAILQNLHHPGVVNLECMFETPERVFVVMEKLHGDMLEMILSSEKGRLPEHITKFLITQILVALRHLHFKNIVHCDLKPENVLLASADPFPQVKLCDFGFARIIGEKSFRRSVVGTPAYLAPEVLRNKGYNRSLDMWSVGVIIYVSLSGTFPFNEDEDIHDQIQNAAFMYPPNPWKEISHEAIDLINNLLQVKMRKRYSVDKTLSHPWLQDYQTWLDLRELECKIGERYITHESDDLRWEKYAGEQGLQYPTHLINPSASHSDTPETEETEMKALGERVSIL
Briefly: affinity purification with mass spectrometry; extracts of HEK293T cells overexpressing FLAG-PKD1, anti-FLAG antibody and protein G-Sepharose; eluate on SDS-PAGE, silver stained, bands analysed by LC-MS/MS.

As for “endogenous KAT7 (from UniProt O95251 1-611)”, the binding entry is given as “binds”.
